Laboratory results: patent US20070265350A1
No constants are given. Whether binding was seen depends on the method and setting. Some entries that bind do so weakly or less than the wild type.

By UniProt entry, the sequences of proteins in these tests, tags left out. Residues count along the entry.
UniProt P00442, residues 2-152: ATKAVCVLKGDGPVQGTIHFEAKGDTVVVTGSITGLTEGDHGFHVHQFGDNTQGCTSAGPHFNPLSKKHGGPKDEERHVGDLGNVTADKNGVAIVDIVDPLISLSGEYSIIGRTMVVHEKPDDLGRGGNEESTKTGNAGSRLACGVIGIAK

Molecular target: Bovine copper/zinc superoxide dismutase (SOD1), native (bovine) (UniProt P00442)
Assay: GTPase immobilized on magnetic beads, loaded or not with guanine nucleotide, bound to SOD1, immunoblot for SOD1 (FIG. 12B)

“RhoA (from UniProt P24406 1-193) (enzyme)” was tested. Which binding did it give?
Its binding is “binds”.
